PubChem BioAssay AID1259254, NCATS | 2017
In all, the deposit lists about 59,000 reagents; shown is a part drawn at random. About 1,550 of all reagents (2.6%) were called active. 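G2 share is only a proxy for re-replication; each gene was hit by three separate siRNAs, and active genes were retested.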 The numbers tell different reagents against one gene apart. Not all columns of the deposit are shown. Not given: the amount of reagent.

Assay: 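Genome-wide screen for genes that prevent DNA re-replication in cancer cells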 (primary screen)
Cell system: human HCT116 colorectal cancer cells
Reagent: single siRNA against human genes
Duration: 3 days
Read-out: 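Nuclei stained with Hoechst and imaged; cell-cycle phase assigned by DNA content; G2 share scaled per plate, non-targeting siRNA 0%, GMNN siRNA 100%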
Direction: G2 robust z-score: higher = more G2 cells, more excess DNA replication
Call rule: 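Active siRNAs have a G2 robust z of 5 or more median absolute deviations over the median, which in these data means about 38% or higher of GMNN control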

RNF111 #1 showed G2 robust z-score 0.172; inactive.
After knock-down of RNF111 #2, the screen gave G2 robust z-score -0.328; inactive.
Silencing of RNF111 #3 resulted in: G2 robust z-score 1.5; inactive.
After knock-down of HLX #1, the screen gave G2 robust z-score 17.6; active.
HLX #2 scored G2 robust z-score -0.574; inactive.
For HLX #3, the entry reads G2 robust z-score -0.643; inactive.
After knock-down of ANKRD34A #1, the screen gave G2 robust z-score 1.54; inactive.
ANKRD34A #2 scored G2 robust z-score 0.184; inactive.
Against ANKRD34A #3 the deposit lists G2 robust z-score -0.314; inactive.

Hits, of those listed so far:
HLX #1 — G2 robust z-score: 17.6; call: active

Next records follow:
After knock-down of GGT5 #1 the results were G2 robust z-score 2.34; inactive.
GGT5 #2 showed G2 robust z-score -1.49; inactive.
Against GGT5 #3, the entry reads G2 robust z-score 1; inactive.
Against SLC25A19 #1, the values are G2 robust z-score -0.823; inactive.
Against SLC25A19 #2, the values are G2 robust z-score 0.569; inactive.
Knock-down of SLC25A19 #3 gave: G2 robust z-score -0.139; inactive.
PROCA1 #1 showed G2 robust z-score 0.815; inactive.
After knock-down of PROCA1 #2 the results were G2 robust z-score -0.944; inactive.
With knock-down of PROCA1 #3, the record shows G2 robust z-score -1.31; inactive.
For AHSP #1 the deposit lists G2 robust z-score 2.2; inactive.
Knock-down of AHSP #2 came out at: G2 robust z-score -0.885; inactive.
With knock-down of AHSP #3, the record shows G2 robust z-score 0.288; inactive.
Against IQCF5 #1, the entry reads G2 robust z-score -0.598; inactive.
After knock-down of IQCF5 #2, the screen gave G2 robust z-score -0.393; inactive.
With knock-down of IQCF5 #3, the screen gave G2 robust z-score -0.565; inactive.
